Test [1] addresses C4 fused to a YFP fragment for BiFC (Tomato yellow leaf curl virus). The test can be described thus: split reporter.
Test [2] deals with C4 protein expressed in Escherichia coli (Tomato yellow leaf curl virus). The test can be described thus: SEC.

No constants are given. Whether binding was seen depends on the method and setting. Binding calls can cover weak binding; strength is not graded here. For part of these data: Binding seen in cells or lysates may run through a third protein. For part of these data: Where a sequence is shown, tags or fusion partners need not be part of it.

B1: BAM1 from Arabidopsis fused to a YFP fragment for BiFC (receptor, UniProt O49545 20-1003)
chain: SRPISEFRALLSLKTSLTGAGDDKNSPLSSWKVSTSFCTWIGVTCDVSRRHVTSLDLSGLNLSGTLSPDVSHLRLLQNLSLAENLISGPIPPEISSLSGLRHLNLSNNVFNGSFPDEISSGLVNLRVLDVYNNNLTGDLPVSVTNLTQLRHLHLGGNYFAGKIPPSYGSWPVIEYLAVSGNELVGKIPPEIGNLTTLRELYIGYYNAFEDGLPPEIGNLSELVRFDGANCGLTGEIPPEIGKLQKLDTLFLQVNVFSGPLTWELGTLSSLKSMDLSNNMFTGEIPASFAELKNLTLLNLFRNKLHGEIPEFIGDLPELEVLQLWENNFTGSIPQKLGENGKLNLVDLSSNKLTGTLPPNMCSGNKLETLITLGNFLFGSIPDSLGKCESLTRIRMGENFLNGSIPKGLFGLPKLTQVELQDNYLSGELPVAGGVSVNLGQISLSNNQLSGPLPPAIGNFTGVQKLLLDGNKFQGPIPSEVGKLQQLSKIDFSHNLFSGRIAPEISRCKLLTFVDLSRNELSGEIPNEITAMKILNYLNLSRNHLVGSIPGSISSMQSLTSLDFSYNNLSGLVPGTGQFSYFNYTSFLGNPDLCGPYLGPCKDGVAKGGHQSHSKGPLSASMKLLLVLGLLVCSIAFAVVAIIKARSLKKASESRAWRLTAFQRLDFTCDDVLDSLKEDNIIGKGGAGIVYKGVMPNGDLVAVKRLAAMSRGSSHDHGFNAEIQTLGRIRHRHIVRLLGFCSNHETNLLVYEYMPNGSLGEVLHGKKGGHLHWDTRYKIALEAAKGLCYLHHDCSPLIVHRDVKSNNILLDSNFEAHVADFGLAKFLQDSGTSECMSAIAGSYGYIAPEYAYTLKVDEKSDVYSFGVVLLELVTGRKPVGEFGDGVDIVQWVRKMTDSNKDSVLKVLDPRLSSIPIHEVTHVFYVAMLCVEEQAVERPTMREVVQILTEIPKLPPSKDQPMTESAPESELSPKSGVQSPPDLLNL
On to B1, for which the binding result in test [1] is on record as “binds”.

B2: BAM2 fused to a YFP fragment for BiFC (receptor, UniProt Q9M2Z1 23-1002)
chain: KPITELHALLSLKSSFTIDEHSPLLTSWNLSTTFCSWTGVTCDVSLRHVTSLDLSGLNLSGTLSSDVAHLPLLQNLSLAANQISGPIPPQISNLYELRHLNLSNNVFNGSFPDELSSGLVNLRVLDLYNNNLTGDLPVSLTNLTQLRHLHLGGNYFSGKIPATYGTWPVLEYLAVSGNELTGKIPPEIGNLTTLRELYIGYYNAFENGLPPEIGNLSELVRFDAANCGLTGEIPPEIGKLQKLDTLFLQVNAFTGTITQELGLISSLKSMDLSNNMFTGEIPTSFSQLKNLTLLNLFRNKLYGAIPEFIGEMPELEVLQLWENNFTGSIPQKLGENGRLVILDLSSNKLTGTLPPNMCSGNRLMTLITLGNFLFGSIPDSLGKCESLTRIRMGENFLNGSIPKELFGLPKLSQVELQDNYLTGELPISGGGVSGDLGQISLSNNQLSGSLPAAIGNLSGVQKLLLDGNKFSGSIPPEIGRLQQLSKLDFSHNLFSGRIAPEISRCKLLTFVDLSRNELSGDIPNELTGMKILNYLNLSRNHLVGSIPVTIASMQSLTSVDFSYNNLSGLVPSTGQFSYFNYTSFVGNSHLCGPYLGPCGKGTHQSHVKPLSATTKLLLVLGLLFCSMVFAIVAIIKARSLRNASEAKAWRLTAFQRLDFTCDDVLDSLKEDNIIGKGGAGIVYKGTMPKGDLVAVKRLATMSHGSSHDHGFNAEIQTLGRIRHRHIVRLLGFCSNHETNLLVYEYMPNGSLGEVLHGKKGGHLHWNTRYKIALEAAKGLCYLHHDCSPLIVHRDVKSNNILLDSNFEAHVADFGLAKFLQDSGTSECMSAIAGSYGYIAPEYAYTLKVDEKSDVYSFGVVLLELITGKKPVGEFGDGVDIVQWVRSMTDSNKDCVLKVIDLRLSSVPVHEVTHVFYVALLCVEEQAVERPTMREVVQILTEIPKIPLSKQQAAESDVTEKAPAINESSPDSGSPPDLLSN
In the case of B2, the binding result in test [1] is listed as “binds”.

B3: kinase domain of BAM1 expressed in Escherichia coli (domain or fragment, UniProt O49545 694-971)
chain: LKEDNIIGKGGAGIVYKGVMPNGDLVAVKRLAAMSRGSSHDHGFNAEIQTLGRIRHRHIVRLLGFCSNHETNLLVYEYMPNGSLGEVLHGKKGGHLHWDTRYKIALEAAKGLCYLHHDCSPLIVHRDVKSNNILLDSNFEAHVADFGLAKFLQDSGTSECMSAIAGSYGYIAPEYAYTLKVDEKSDVYSFGVVLLELVTGRKPVGEFGDGVDIVQWVRKMTDSNKDSVLKVLDPRLSSIPIHEVTHVFYVAMLCVEEQAVERPTMREVVQILTEIPKL
For the molecule B3, in test [2], the binding result is “binds”.

For the origin of these results see publication doi:10.1101/180380.
